Experimental data published in paper doi:10.1101/333070.
Residue numbers refer to the chain shown, from its start. These are yes or no findings as the source states them, for the method shown. Some entries that bind do so weakly or less than the wild type. Tags and fused reporters may be left off the sequences shown. Blank lines part the entries; values can stand above or below the molecule they belong to.

What was measured:
[1] = biological target: T1, mouse NGF pro-domain (NGFpd), residues 19-121 of mouse β-proNGF (mouse) (UniProt P01139); assay: NMR titration
T1 sequence: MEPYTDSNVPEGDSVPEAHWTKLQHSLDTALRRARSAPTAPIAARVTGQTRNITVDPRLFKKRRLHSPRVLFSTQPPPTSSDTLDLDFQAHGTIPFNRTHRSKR

[2] = biological target: mature mouse nerve growth factor (NGF) (mouse) (UniProt P01139); assay: NMR titration
[3] = biological target: mature mouse nerve growth factor (NGF) (mouse) (UniProt P01139); assay: NMR paramagnetic relaxation enhancement

B1: mouse NGF pro-domain (NGFpd), residues 19-121 of mouse β-proNGF (domain or fragment, UniProt P01139 19-121)
chain: T1 sequence
- binding [2]: binds weakly

B2: NGFpdE19C-MTSL (domain or fragment, UniProt P01139 19-121)
chain: T1 sequence with E2C
modifications: MTSL nitroxide spin label on Cys19
- binding [3]: binds

B4: NGFpdS24C-MTSL (domain or fragment, UniProt P01139 19-121)
chain: T1 sequence with S7C
modifications: MTSL nitroxide spin label on Cys24
- binding [3]: binds

Other lines, results leading:

- binding [1]: binds weakly
Molecule: mature mouse nerve growth factor (NGF) (from UniProt P01139 122-241) (ligand)

- binding [3]: binds
B3: NGFpdS90C-MTSL (domain or fragment, UniProt P01139 19-121)
chain: T1 sequence with S73C
modifications: MTSL nitroxide spin label on Cys90
